PMC9682698
No constants are given. Whether binding was seen depends on the method and setting. Binding seen in cells or lysates may run through a third protein. Here binding means that the protein was enriched with, or labelled near, the bait; the list need not be complete.

Target: GFP-PmACRE1 (Avr9/Cf-9 rapidly elicited protein 1 of Pinus massoniana) (Pinus massoniana)
Experiment: affinity purification with mass spectrometry; leaf proteins of T3 homozygous PmACRE1-OX transgenic A. thaliana incubated with GFP-Trap agarose (ChromoTek); vector control line as control; SDS-PAGE, trypsin, LC-MS/MS (Orbitrap Fusion Lumos), Proteome Discoverer against UniProt

Binder	binding
Glycine-rich protein (protein, UniProt Q9LFX8 1-420) MAATASSEASEGPVMGLINKRLRALRKKYNRITQMEESISQGKTLNKEQEEVLRSKPAVVILIDELEKIRAPLSAAVTEEISLATQLNRASSDQTTASEQKEVTDIPQEVSGGDDGAKLEDLVNFLYFGSLFDVKSQNEFTSIMLTRTHERSCCLSYDYVTDDATDLLGDRDLDSISQLWSLMVSRPVDSSLSHKNALERCVEHAKLWLANSEQPIESNCNTSYAALREKLKKIMASDYFTTTPEMKAPVDVAAAAGNYTSYQVPVDVEASGHYQQKEEDASNSKEVESVVNDQSQQDEHQKVELVTEGEVVHGQQEQGYTQVGGAENAKRDYVPRGSYQNQRGRRGARRGGGGYQNGRGGRGGGGGYQNGRYESYDQSGGNGYQRNYYNNRGRGRGGGGGGGNGHSYNNYQDPNVAVAS	binds
Myrosinase 2 (protein, UniProt Q9C5C2 29-547) KPEEEITCEENVPFTCSQTDRFNKQDFESDFIFGVASSAYQIEGGRGRGLNVWDGFTHRYPEKGGADLGNGDTTCDSYRTWQKDLDVMEELGVKGYRFSFAWSRILPKGKRSRGINEDGINYYSGLIDGLIARNITPFVTLFHWDLPQSLQDEYEGFLDRTIIDDFKDYADLCFERFGDRVKHWITINQLFTVPTRGYALGTDAPGRCSQWVDKRCYGGDSSTEPYIVAHNQLLAHATVVDLYRTRYKYQGGKIGPVMITRWFLPYDDTLESKQATWRAKEFFLGWFMEPLTKGKYPYIMRKLVGNRLPKFNSTEARLLKGSYDFLGLNYYVTQYAHALDPSPPEKLTAMTDSLANLTSLDANGQPPGPPFSKGSYYHPRGMLNVMEHFKTKYGDPLIYVTENGFSTSGGPIPFTEAFHDYNRIDYLCSHLCFLRKAIKEKRVNVKGYFVWSLGDNYEFCNGYTVRFGLSYVDFNNVTADRDLKASGLWYQSFLRDTTKNQDILRSSLPFKNGDRKSLT	binds
Geranylgeranyl diphosphate reductase, chloroplastic (protein, UniProt Q9CA67 44-467) AARATPKLSNRKLRVAVIGGGPAGGAAAETLAQGGIETILIERKMDNCKPCGGAIPLCMVGEFNLPLDIIDRRVTKMKMISPSNIAVDIGRTLKEHEYIGMVRREVLDAYLRERAEKSGATVINGLFLKMDHPENWDSPYTLHYTEYDGKTGATGTKKTMEVDAVIGADGANSRVAKSIDAGDYDYAIAFQERIRIPDEKMTYYEDLAEMYVGDDVSPDFYGWVFPKCDHVAVGTGTVTHKGDIKKFQLATRNRAKDKILGGKIIRVEAHPIPEHPRPRRLSKRVALVGDAAGYVTKCSGEGIYFAAKSGRMCAEAIVEGSQNGKKMIDEGDLRKYLEKWDKTYLPTYRVLDVLQKVFYRSNPAREAFVEMCNDEYVQKMTFDSYLYKRVAPGSPLEDIKLAVNTIGSLVRANALRREIEKLSV	binds
